Assay results: the supplement of paper PMC10849652
The list shows a part of the results.

Sequences of proteins named here, by UniProt entry; tags and fusion partners are left off. A change or cut given only in a name is not applied to a line headed by its entry.
UniProt Q9NUQ6: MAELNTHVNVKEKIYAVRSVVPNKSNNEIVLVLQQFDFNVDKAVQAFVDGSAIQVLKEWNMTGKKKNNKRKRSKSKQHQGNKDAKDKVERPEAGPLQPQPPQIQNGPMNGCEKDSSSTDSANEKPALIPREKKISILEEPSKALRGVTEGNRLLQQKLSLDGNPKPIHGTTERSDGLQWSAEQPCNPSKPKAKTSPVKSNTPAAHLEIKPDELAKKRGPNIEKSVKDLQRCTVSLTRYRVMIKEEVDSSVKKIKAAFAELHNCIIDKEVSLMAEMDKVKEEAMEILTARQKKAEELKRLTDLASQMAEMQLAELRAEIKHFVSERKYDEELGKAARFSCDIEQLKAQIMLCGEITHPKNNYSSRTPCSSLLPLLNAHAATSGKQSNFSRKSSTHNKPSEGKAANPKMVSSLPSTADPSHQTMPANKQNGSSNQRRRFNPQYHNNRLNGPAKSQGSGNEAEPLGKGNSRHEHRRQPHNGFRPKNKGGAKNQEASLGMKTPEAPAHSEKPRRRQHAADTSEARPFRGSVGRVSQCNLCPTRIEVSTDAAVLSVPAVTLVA
UniProt Q9Y6N5: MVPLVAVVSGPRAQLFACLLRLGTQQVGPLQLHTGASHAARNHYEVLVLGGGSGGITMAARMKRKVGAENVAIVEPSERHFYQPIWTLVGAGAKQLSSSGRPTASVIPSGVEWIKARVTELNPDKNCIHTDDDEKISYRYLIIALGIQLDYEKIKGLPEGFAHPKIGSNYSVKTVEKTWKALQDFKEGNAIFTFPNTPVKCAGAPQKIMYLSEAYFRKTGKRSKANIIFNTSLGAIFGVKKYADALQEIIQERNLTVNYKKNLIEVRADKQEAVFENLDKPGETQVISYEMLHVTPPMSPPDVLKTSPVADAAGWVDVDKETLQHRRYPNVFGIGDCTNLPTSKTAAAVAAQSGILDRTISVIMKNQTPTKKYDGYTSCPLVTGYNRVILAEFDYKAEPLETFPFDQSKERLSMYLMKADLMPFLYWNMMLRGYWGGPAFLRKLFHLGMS
UniProt Q9C0H9: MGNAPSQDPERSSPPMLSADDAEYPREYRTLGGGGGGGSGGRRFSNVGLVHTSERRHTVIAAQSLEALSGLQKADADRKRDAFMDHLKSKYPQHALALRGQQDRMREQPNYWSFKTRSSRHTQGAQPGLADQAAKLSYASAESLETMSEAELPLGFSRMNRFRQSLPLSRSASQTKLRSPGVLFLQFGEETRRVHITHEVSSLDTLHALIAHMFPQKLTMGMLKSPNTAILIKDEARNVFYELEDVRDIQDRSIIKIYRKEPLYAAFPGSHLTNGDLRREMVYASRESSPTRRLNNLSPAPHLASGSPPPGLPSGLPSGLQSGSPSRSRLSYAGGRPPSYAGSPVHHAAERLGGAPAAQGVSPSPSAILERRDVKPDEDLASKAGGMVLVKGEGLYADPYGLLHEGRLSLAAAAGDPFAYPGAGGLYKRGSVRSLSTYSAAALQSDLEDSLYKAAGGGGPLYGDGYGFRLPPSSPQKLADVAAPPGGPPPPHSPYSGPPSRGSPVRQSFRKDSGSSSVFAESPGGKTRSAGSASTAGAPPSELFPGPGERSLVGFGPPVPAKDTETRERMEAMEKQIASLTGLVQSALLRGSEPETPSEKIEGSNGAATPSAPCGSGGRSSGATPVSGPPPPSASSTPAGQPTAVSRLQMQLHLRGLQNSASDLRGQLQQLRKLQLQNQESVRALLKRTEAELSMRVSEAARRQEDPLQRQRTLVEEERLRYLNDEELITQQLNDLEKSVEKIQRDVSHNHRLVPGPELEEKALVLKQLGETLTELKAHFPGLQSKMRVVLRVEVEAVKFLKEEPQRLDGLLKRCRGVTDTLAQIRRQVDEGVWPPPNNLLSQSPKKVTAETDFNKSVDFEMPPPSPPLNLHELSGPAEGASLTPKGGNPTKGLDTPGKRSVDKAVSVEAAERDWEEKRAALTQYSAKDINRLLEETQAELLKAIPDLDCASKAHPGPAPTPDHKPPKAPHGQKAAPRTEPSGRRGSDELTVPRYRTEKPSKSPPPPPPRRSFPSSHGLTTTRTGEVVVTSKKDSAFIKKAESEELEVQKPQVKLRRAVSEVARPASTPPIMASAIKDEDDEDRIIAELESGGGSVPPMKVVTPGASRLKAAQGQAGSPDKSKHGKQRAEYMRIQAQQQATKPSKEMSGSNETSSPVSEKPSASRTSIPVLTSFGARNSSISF
UniProt Q96T58, whole entry, looked up: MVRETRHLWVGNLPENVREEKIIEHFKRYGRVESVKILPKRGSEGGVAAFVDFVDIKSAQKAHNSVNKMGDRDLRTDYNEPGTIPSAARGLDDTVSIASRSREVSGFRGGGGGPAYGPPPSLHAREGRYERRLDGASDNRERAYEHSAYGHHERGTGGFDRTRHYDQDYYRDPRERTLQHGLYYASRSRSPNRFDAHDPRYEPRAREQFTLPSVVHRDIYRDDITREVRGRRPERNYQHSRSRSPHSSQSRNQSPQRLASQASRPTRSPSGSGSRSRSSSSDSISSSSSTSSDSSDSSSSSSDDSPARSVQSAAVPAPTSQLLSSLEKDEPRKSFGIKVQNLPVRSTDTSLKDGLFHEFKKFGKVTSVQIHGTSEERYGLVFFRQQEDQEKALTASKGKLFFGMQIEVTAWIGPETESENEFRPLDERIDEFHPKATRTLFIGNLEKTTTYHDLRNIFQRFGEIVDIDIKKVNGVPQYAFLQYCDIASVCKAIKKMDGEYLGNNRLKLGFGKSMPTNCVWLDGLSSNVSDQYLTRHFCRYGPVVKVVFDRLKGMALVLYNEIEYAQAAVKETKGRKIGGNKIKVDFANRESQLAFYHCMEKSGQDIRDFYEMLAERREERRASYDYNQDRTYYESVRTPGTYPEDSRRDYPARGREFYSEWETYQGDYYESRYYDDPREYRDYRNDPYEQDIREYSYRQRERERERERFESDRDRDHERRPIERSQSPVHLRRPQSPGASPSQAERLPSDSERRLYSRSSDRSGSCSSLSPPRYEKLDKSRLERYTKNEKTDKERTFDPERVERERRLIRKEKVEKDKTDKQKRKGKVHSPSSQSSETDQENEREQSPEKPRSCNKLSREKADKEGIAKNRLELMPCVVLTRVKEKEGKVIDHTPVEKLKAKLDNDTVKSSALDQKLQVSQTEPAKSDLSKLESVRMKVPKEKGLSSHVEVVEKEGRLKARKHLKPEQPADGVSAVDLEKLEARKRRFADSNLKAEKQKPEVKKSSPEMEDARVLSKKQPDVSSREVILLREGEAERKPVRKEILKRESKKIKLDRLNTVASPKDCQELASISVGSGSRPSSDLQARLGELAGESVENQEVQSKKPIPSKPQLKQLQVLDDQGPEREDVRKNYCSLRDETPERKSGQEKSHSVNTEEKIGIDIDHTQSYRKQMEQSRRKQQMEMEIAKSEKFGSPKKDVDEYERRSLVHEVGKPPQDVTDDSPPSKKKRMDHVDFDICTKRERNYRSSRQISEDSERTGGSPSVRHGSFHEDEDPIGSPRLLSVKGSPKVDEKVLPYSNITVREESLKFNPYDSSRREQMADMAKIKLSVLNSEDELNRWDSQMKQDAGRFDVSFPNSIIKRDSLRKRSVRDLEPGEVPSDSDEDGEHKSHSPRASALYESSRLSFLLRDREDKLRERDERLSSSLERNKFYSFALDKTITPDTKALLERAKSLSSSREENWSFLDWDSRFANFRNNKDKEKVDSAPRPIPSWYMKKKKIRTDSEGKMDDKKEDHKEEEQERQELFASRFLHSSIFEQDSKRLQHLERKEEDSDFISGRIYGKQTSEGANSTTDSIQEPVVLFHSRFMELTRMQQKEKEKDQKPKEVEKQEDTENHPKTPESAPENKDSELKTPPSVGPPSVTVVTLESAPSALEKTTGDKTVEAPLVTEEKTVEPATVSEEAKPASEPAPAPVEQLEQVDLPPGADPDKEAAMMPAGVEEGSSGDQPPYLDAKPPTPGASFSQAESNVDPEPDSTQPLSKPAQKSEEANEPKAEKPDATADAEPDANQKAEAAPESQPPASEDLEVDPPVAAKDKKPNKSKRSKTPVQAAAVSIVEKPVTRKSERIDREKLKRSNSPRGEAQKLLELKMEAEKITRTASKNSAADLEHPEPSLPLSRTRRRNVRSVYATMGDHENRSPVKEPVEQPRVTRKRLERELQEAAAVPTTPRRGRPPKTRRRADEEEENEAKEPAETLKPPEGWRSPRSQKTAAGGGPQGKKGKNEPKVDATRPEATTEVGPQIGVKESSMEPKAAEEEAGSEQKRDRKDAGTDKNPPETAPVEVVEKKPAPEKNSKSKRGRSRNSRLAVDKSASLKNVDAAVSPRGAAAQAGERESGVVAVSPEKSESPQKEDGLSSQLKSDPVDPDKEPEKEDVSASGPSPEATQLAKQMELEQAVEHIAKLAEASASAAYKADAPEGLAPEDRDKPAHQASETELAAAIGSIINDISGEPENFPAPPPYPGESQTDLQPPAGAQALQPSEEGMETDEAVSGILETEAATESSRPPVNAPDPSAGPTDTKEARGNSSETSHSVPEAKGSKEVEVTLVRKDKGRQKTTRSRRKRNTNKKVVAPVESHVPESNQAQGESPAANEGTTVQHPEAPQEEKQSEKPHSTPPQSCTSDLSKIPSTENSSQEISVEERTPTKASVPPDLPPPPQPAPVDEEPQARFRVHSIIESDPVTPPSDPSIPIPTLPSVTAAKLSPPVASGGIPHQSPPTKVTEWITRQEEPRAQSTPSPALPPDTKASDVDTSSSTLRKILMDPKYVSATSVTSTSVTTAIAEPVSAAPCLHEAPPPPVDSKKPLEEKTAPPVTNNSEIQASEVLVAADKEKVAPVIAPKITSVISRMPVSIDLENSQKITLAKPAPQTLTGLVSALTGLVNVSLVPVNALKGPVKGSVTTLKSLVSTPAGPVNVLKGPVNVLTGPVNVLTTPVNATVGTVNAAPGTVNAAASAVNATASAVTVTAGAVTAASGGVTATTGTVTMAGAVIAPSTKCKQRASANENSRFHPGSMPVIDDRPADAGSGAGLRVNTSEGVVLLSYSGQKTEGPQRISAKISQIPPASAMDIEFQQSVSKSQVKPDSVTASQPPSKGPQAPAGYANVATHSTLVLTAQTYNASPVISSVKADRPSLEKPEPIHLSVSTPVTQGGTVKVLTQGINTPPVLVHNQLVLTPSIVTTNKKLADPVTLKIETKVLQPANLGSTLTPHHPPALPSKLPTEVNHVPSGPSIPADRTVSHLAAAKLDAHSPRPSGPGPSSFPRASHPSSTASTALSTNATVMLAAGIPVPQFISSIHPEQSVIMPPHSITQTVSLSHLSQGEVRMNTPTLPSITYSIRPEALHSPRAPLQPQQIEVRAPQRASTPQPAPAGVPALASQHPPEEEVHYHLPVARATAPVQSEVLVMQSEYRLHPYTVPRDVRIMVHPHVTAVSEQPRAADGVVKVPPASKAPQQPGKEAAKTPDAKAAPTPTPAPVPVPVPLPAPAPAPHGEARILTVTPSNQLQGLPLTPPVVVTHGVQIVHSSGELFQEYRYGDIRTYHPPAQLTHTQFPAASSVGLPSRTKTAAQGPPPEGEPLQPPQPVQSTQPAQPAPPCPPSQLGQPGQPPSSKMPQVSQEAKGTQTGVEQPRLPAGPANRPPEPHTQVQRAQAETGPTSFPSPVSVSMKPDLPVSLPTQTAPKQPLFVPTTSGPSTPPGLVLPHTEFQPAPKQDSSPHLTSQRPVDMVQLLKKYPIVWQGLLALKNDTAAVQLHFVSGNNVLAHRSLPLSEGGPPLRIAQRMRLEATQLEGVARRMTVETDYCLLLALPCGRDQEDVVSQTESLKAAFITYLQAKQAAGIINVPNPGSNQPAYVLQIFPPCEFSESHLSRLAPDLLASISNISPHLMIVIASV
UniProt Q15532, whole entry, looked up: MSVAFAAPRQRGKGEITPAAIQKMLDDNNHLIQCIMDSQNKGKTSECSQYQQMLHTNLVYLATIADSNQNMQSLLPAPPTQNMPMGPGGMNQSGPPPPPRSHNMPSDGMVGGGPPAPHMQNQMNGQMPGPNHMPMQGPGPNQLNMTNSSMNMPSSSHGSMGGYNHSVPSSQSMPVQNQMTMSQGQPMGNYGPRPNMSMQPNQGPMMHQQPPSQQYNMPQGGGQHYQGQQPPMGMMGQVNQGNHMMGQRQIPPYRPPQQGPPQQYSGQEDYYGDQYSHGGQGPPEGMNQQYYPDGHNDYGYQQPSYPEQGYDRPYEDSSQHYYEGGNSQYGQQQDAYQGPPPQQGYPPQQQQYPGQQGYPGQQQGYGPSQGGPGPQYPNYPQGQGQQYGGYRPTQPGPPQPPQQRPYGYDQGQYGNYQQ
UniProt Q9H8P0: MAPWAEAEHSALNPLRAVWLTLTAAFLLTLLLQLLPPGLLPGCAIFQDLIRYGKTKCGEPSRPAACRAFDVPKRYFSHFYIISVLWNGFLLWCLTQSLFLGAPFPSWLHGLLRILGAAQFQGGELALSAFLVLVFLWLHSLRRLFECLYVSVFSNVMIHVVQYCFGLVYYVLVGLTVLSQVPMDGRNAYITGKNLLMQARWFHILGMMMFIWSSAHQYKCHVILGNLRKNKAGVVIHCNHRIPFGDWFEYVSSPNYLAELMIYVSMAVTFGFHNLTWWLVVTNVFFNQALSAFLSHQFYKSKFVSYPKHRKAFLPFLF

compound: NC(=O)Nc1cc(-c2cccc(F)c2)sc1C(=O)N[C@H]1CCCNC1; test: log2 fold change, soluble protein after heating vs DMSO (PISA); higher = thermal stabilisation; K562 cells, 10 uM, 30 min; active = over 0.2 and 3.5 SD of the protein, either way, in both replicates (recomputed)
Method in brief: (§1)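 K562 cells at 2×10^6 cells/mL were exposed to 10 μM compound for 30 min, then aliquots were heated for 3 min across 48°C-58°C, pooled, and extracted in PBS containing 0.5% NP-40 at 4°C. The supernatant after 21,000xg for 90 min was taken as soluble protein and measured by TMTpro 16plex LC-MS/MS with channel sums equalised. Thermal stability is reported relative to control samples, with values from duplicates. Fold changes are given on a log2 scale.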

Target | log2 fold change
SPIRE2 (UniProt Q8WWL2) | inactive: -0.096
SPHK2 isoform 5 (UniProt Q9NRA0) | inactive: 0.139
SSH2 (UniProt Q76I76) | inactive: -0.048
SREBF2 (UniProt Q12772) | inactive: -0.116
SPDL1 (UniProt Q96EA4) | inactive: -0.165
SPATS2L isoform 3 (UniProt Q9NUQ6) | inactive: -0.061
STARD10 (UniProt Q9Y365) | inactive: 0.126
SPINT1 (UniProt O43278) | inactive: -0.061
SQOR (UniProt Q9Y6N5) | inactive: -0.137
SRCAP (UniProt Q6ZRS2) | inactive: -0.079

compound: NC(=O)c1cnc(N[C@@H]2CCCC[C@@H]2N)nc1Nc1cccc(-n2nccn2)c1; test: as above
Method in brief: as §1

Target | log2 fold change
SRCIN1 (UniProt Q9C0H9) | inactive: 0.019
SPEN (UniProt Q96T58) | inactive: 0.062
SPIRE1 (UniProt Q08AE8) | inactive: -0.025
SSX1 (UniProt Q16384) | inactive: 0.047
SPRED2 (UniProt Q7Z698) | inactive: 0.327
SPRED1 (UniProt Q7Z699) | inactive: 0.005
SS18 (UniProt Q15532) | inactive: 0.208
STK19 (UniProt P49842) | inactive: 0.012
STIM2 isoform 2 (UniProt Q9P246) | inactive: -0.128
SPATS2L isoform 3 (UniProt Q9NUQ6) | inactive: 0.091
SRD5A3 (UniProt Q9H8P0) | inactive: -0.081

compound: NC1(c2ccc(-c3nc4ccn5c(=O)[nH]nc5c4cc3-c3ccccc3)cc2)CCC1; test: as above
Method in brief: as §1

Target | log2 fold change
SPEN (UniProt Q96T58) | inactive: 0.005
SPIRE1 (UniProt Q08AE8) | inactive: 0.063
SREBF2 (UniProt Q12772) | inactive: -0.031
SSBP2 (UniProt P81877) | inactive: 0.045
SS18 (UniProt Q15532) | inactive: -0.04
STAB1 (UniProt Q9NY15) | inactive: -0.197
SPRR2B (UniProt P35325) | inactive: 0.043
SSBP4 (UniProt U3KPY3) | inactive: -0.014
STAR (UniProt P49675) | inactive: 0.019
SSB (UniProt E7ERC4) | inactive: -0.168
SSR2 (UniProt P43308) | inactive: 0.578
SPPL3 (UniProt Q8TCT6) | inactive: -0.313
SRD5A3 (UniProt Q9H8P0) | inactive: -0.182
SPRR1B (UniProt P22528) | inactive: 0.046
SRGAP1 (UniProt Q7Z6B7) | inactive: 0.179
SRCAP (UniProt Q6ZRS2) | inactive: 0.001
SREBF1 isoform 4 (UniProt P36956) | active: -0.565

compound: NCC(=O)Nc1ccc(-n2nc(C(F)(F)F)cc2-c2ccc3c(ccc4ccccc43)c2)cc1; test: as above
Method in brief: as §1

Target | log2 fold change
SRCIN1 (UniProt Q9C0H9) | inactive: -0.084
SPEN (UniProt Q96T58) | inactive: 0.032
SPIRE1 (UniProt Q08AE8) | inactive: -0.04
SREBF2 (UniProt Q12772) | inactive: -0.106
SPRED1 (UniProt Q7Z699) | inactive: -0.031
SS18 (UniProt Q15532) | inactive: 0.056
STAB1 (UniProt Q9NY15) | inactive: -0.258
SPRR2B (UniProt P35325) | inactive: -0.204
SSBP4 (UniProt U3KPY3) | inactive: 0.016
STAR (UniProt P49675) | inactive: 0.023
SSB (UniProt E7ERC4) | inactive: -0.065
STIM2 isoform 2 (UniProt Q9P246) | inactive: 0.066
STARD10 (UniProt Q9Y365) | inactive: -0.07
SPINT1 (UniProt O43278) | inactive: 0.18
SQOR (UniProt Q9Y6N5) | inactive: -0.008
SRGAP1 (UniProt Q7Z6B7) | inactive: -0.176
SPTAN1 isoform 3 (UniProt Q13813) | inactive: -0.014
SRCAP (UniProt Q6ZRS2) | inactive: -0.041
STC2 (UniProt O76061) | inactive: 0.613
SPATS2 (UniProt Q86XZ4) | inactive: -0.061

compound: Nc1ccccc1NC(=O)c1ccc(CNC(=O)OCc2cccnc2)cc1 [entinostat]; test: as above
Method in brief: as §1

Target | log2 fold change
SPIRE2 (UniProt Q8WWL2) | inactive: -0.044
SPHK2 isoform 5 (UniProt Q9NRA0) | inactive: -0.183
SSH2 (UniProt Q76I76) | inactive: -0.08
SREBF2 (UniProt Q12772) | inactive: -0.011
SPDL1 (UniProt Q96EA4) | inactive: 0.543
SPATS2L isoform 3 (UniProt Q9NUQ6) | inactive: -0.05
STARD10 (UniProt Q9Y365) | inactive: 0.306
SPINT1 (UniProt O43278) | inactive: -0.243
SQOR (UniProt Q9Y6N5) | inactive: -0.096
SRCAP (UniProt Q6ZRS2) | inactive: 0.077

compound: O=C(CCCCCCC(=O)Nc1ccccc1)NO [vorinostat]; test: as above
Method in brief: as §1

Target | log2 fold change
SRCIN1 (UniProt Q9C0H9) | inactive: 0.226
SPIRE2 (UniProt Q8WWL2) | inactive: 0.078
SRBD1 (UniProt Q8N5C6) | inactive: -0.156
SPEN (UniProt Q96T58) | inactive: -0.032
SPIRE1 (UniProt Q08AE8) | inactive: -0.035
SSBP2 (UniProt P81877) | inactive: -0.162
SS18 (UniProt Q15532) | inactive: -0.274
STAB1 (UniProt Q9NY15) | inactive: 0.068
SSB (UniProt E7ERC4) | inactive: -0.176
STIP1 (UniProt H0YGI8) | inactive: 0.118
SRD5A3 (UniProt Q9H8P0) | inactive: -0.024
SPINT1 (UniProt O43278) | inactive: 0.175
SQOR (UniProt Q9Y6N5) | inactive: -0.085
SRGAP1 (UniProt Q7Z6B7) | inactive: -0.152
SRCAP (UniProt Q6ZRS2) | inactive: -0.039
SPICE1 (UniProt Q8N0Z3) | inactive: -0.561
STC2 (UniProt O76061) | inactive: 0.002
SPATS2 (UniProt Q86XZ4) | inactive: -0.009
